Measured values from patent US20240374571A1, “PHARMACEUTICAL COMBINATIONS COMPRISING A TEAD INHIBITOR AND USES THEREOF FOR THE TREATMENT OF CANCERS” (Novartis AG, priority 2021, published 2024).
At least one compound was matched to its structure with a doubt left.

Assays:
Format in all cases: cell-based
[1] = tested on: LU65 lung cancer cell line; assay: LU65 viability, CellTiterGlo, 7-day treatment
Procedure: (§1) Growth inhibition %: 0-99=delayed proliferation, 100=growth arrest/stasis, 101-200=reduction in cell number/cell death.
(§2) Seven days after treatment initiation, cell growth was determined using CellTiter-Glo® (Promega #G7573), which measures the amount of ATP in the well. Plates were equilibrated to room temperature for approximately thirty minutes and one volume of CellTiter-Glo® Reagent equal to the volume of cell culture medium was added. Cell lysis was induced for two minutes on an orbital shaker, the plates were incubated at room temperature for ten minutes, and luminescence was recorded.
(§3) Cells were treated with the indicated final concentrations of compounds. Dose response curves were derived using XLfit dose response one site, model 205. Reported is the percentage of growth inhibition versus DMSO (percentage GI) after subtracting the reads of Day 1.

[2] = tested on: SW1463 colorectal cancer cell line; assay: SW1463 viability, CellTiterGlo, 7-day treatment
Procedure: as §1
(§4) Cells were allowed to adhere and begin growth for twenty-four hours. On plate was counted prior treatment (=Day 1), and the other plate was treated with compounds or DMSO using a HP D300 digital dispenser.
(§5) After seventy-two hours the medium was refreshed by supplementing 25 μl per well of culture medium containing the corresponding compounds or DMSO. All treatments were done in triplicates.
as §2, §3

[3] = tested on: HCC44 lung cancer cell line; assay: HCC44 viability, CellTiterGlo, 7-day treatment
Procedure: as §1, §4, §5, §2, §3

C=CC(=O)N1CCN(c2nc(=O)n(-c3c(C)ccnc3C(C)C)c3nc(-c4c(O)cccc4F)c(F)cc23)[C@@H](C)C1 [Sotorasib]
inhibited: proliferation of LU65 cells [1] | proliferation of SW1463 cells [2] | proliferation of HCC44 cells [3]
